The text below walks through data of article PMC12557380, “Optimization of 2,8-Diaryl-1,5-naphthyridines as Plasmodium falciparum Phosphatidylinositol 4‑Kinase Inhibitors with Improved ADME Profiles and In Vivo Efficacy” (Journal of Medicinal Chemistry, 2025).

For the data set, the system named is Chinese hamster ovary cells. The data set is described as follows: Cytotoxicity, MTT assay, CHO. The format is cell-based. Particulars: for CHO SI (NF54): CHO IC50/PfNF54 IC50; for CHO SI (K1): selectivity index with respect to K1 IC50, ratio IC50 (Chinese hamster ovary cells) / IC50 (P. falciparum K1).

As to `CS(=O)(=O)c1cccc(-c2ccc3nccc(-c4cccc(S(C)(=O)=O)c4)c3n2)c1` [Compound 18, 2,8-Bis(3-methylsulfonylphenyl)-1,5-naphthyridine], the “CHO SI (NF54)” value stood at 2176.
Consider `Cn1ccc(-c2ccc3nccc(-c4ccc(C(C)(C)O)nc4)c3n2)cc1=O` [Compound 24, 4-[8-[6-(2-Hydroxypropan-2-yl)pyridin-3-yl]-1,5-naphthyridin-2-yl]-1-methylpyridin-2-one], for which the “CHO SI (NF54)” value is 333 and the “CHO SI (K1)” value stood at 109.
For the compound `CC(C)(O)c1ccc(-c2ccnc3ccc(-c4ccnc(N5C[C@H](O)[C@@H](O)C5)c4)nc23)cn1` [Compound 28, (3S,4S)-1-[4-[8-[6-(2-Hydroxypropan-2-yl)pyridin-3-yl]-1,5-naphthyridin-2-yl]pyridin-2-yl]pyrrolidine-3,4-diol], the “CHO SI (NF54)” value is reported as more than 1162 and the “CHO SI (K1)” value is listed as more than 943.
For `CC(C)(O)c1cccc(-c2ccc3nccc(-c4ccc(C(C)(C)O)nc4)c3n2)c1` [Compound 30, 2-[3-[8-[6-(2-Hydroxypropan-2-yl)pyridin-3-yl]-1,5-naphthyridin-2-yl]phenyl]propan-2-ol], in that order: 30 and 88.
For `CS(=O)(=O)c1cccc(-c2ccc3nccc(-c4ccc(C(=O)N5CCC(O)C5)cc4)c3n2)c1` (stereo not shown) [Compound 37, (3-Hydroxypyrrolidin-1-yl)-[4-[6-(3-methylsulfonylphenyl)-1,5-naphthyridin-4-yl]phenyl]methanone], the “CHO SI (NF54)” value was determined as 750 and the “CHO SI (K1)” value amounted to 250.
Turning to `CS(=O)(=O)c1cccc(-c2ccc3nccc(-c4ccc(C(=O)N5CC[C@H](N)C5)cc4)c3n2)c1` [Compound 38, [(3S)-3-Aminopyrrolidin-1-yl]-[4-[6-(3-methylsulfonylphenyl)-1,5-naphthyridin-4-yl]phenyl]methanone], the “CHO SI (NF54)” value came to 583.
